The source of these data is paper doi:10.1101/2023.03.07.531462.

These are yes or no findings as the source states them, for the method shown. In cells and extracts the contact can be indirect. These calls come from enrichment with a bait or labelling near it, and not all partners need be listed.

The test has as its target TbMsp1-HA (in situ C-terminally triple HA-tagged TbMsp1) (Trypanosoma brucei) (UniProt Q57W41). Put plainly: affinity purification with mass spectrometry.
“TbTsc13, endogenous (from UniProt Q57ZC7)”: the binding entry is given as “binds”. The entry for “POMP19, endogenous (from UniProt Q38CI9)” is “binds”; for “protein of the mitochondrial OM proteome 31 (POMP31), endogenous (from UniProt Q585W6)” it is “binds”.

Consider “glycosomal metabolite transporter GAT2 (Tb927.11.3130) (from UniProt Q386J8)”, for which the binding entry is recorded as “binds”. Consider “peroxisome biogenesis protein Pex11 (Tb927.11.11520) (from UniProt Q383C6)”, for which the binding result is listed as “binds”.

TbJ31, endogenous (from UniProt Q57VU5): the binding result is “binds”.

Consider “cytosolic fumarate hydratase (Tb927.3.4500) (from UniProt Q580J2) (enzyme)”, for which the binding entry was “binds”. Under “glycosomal metabolite transporter GAT1 (Tb927.4.4050) (from UniProt Q57Y09)” stands “binds”.
